From publication PMC10439933
These are yes or no findings as the source states them, for the method shown. In cells and extracts the contact can be indirect. Some binding calls cover weakened binding; strength is not graded here.

By UniProt entry, the sequences of proteins in these tests, tags left out.
UniProt Q92769: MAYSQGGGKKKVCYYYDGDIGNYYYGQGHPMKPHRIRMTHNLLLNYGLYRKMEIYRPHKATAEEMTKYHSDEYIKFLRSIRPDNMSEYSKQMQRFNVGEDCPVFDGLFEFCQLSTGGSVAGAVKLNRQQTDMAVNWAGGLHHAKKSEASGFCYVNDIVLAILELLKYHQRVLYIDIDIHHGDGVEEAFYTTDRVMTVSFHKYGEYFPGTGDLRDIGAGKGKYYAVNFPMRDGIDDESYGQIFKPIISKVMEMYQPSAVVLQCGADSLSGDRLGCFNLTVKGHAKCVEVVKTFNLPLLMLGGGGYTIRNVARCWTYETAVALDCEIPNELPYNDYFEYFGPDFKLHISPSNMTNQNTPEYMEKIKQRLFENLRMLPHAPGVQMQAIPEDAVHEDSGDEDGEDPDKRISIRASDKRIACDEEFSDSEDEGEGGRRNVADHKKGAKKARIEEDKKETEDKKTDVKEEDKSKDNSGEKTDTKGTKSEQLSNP

T1: SMAD4 (human (endogenous in patient-derived BTSC lines)), Q13485
T1 chain: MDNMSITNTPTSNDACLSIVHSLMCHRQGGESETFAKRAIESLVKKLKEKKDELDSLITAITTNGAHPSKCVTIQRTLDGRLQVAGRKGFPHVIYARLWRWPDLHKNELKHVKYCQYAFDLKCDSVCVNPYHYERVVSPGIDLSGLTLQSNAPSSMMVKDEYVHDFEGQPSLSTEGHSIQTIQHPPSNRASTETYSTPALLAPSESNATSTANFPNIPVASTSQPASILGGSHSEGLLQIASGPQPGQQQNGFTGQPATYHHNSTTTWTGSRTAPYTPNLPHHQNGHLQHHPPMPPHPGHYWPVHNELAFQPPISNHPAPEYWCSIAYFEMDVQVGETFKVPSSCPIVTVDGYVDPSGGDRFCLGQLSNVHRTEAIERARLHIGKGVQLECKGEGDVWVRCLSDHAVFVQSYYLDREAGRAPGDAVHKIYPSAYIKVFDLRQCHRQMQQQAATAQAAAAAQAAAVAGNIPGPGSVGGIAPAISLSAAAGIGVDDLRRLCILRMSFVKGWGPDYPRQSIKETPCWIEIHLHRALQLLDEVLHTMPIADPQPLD

B1: SKI (protein, UniProt P12755 1-728)
chain: MEAAAGGRGCFQPHPGLQKTLEQFHLSSMSSLGGPAAFSARWAQEAYKKESAKEAGAAAVPAPVPAATEPPPVLHLPAIQPPPPVLPGPFFMPSDRSTERCETVLEGETISCFVVGGEKRLCLPQILNSVLRDFSLQQINAVCDELHIYCSRCTADQLEILKVMGILPFSAPSCGLITKTDAERLCNALLYGGAYPPPCKKELAASLALGLELSERSVRVYHECFGKCKGLLVPELYSSPSAACIQCLDCRLMYPPHKFVVHSHKALENRTCHWGFDSANWRAYILLSQDYTGKEEQARLGRCLDDVKEKFDYGNKYKRRVPRVSSEPPASIRPKTDDTSSQSPAPSEKDKPSSWLRTLAGSSNKSLGCVHPRQRLSAFRPWSPAVSASEKELSPHLPALIRDSFYSYKSFETAVAPNVALAPPAQQKVVSSPPCAAAVSRAPEPLATCTQPRKRKLTVDTPGAPETLAPVAAPEEDKDSEAEVEVESREEFTSSLSSLSSPSFTSSSSAKDLGSPGARALPSAVPDAAAPADAPSGLEAELEHLRQALEGGLDTKEAKEKFLHEVVKMRVKQEEKLSAALQAKRSLHQELEFLRVAKKEKLREATEAKRNLRKEIERLRAENEKKMKEANESRLRLKRELEQARQARVCDKGCEAGRLRAKYSAQIEDLQVKLQHAEADREQLRADLLREREAREHLEKVVKELQEQLWPRARPEAAGSEGAAELEP
B2: SMAD3, P84022 1-425 (protein)
chain: MSSILPFTPPIVKRLLGWKKGEQNGQEEKWCEKAVKSLVKKLKKTGQLDELEKAITTQNVNTKCITIPRSLDGRLQVSHRKGLPHVIYCRLWRWPDLHSHHELRAMELCEFAFNMKKDEVCVNPYHYQRVETPVLPPVLVPRHTEIPAEFPPLDDYSHSIPENTNFPAGIEPQSNIPETPPPGYLSEDGETSDHQMNHSMDAGSPNLSPNPMSPAHNNLDLQPVTYCEPAFWCSISYYELNQRVGETFHASQPSMTVDGFTDPSNSERFCLGLLSNVNRNAAVELTRRHIGRGVRLYYIGGEVFAECLSDSAIFVQSPNCNQRYGWHPATVCKIPPGCNLKIFNNQEFAALLAQSVNQGFEAVYQLTRMCTIRMSFVKGWGAEYRRQTVTSTPCWIELHLNGPLQWLDKVLTQMGSPSIRCSSVS
B3: SNON (protein, UniProt P12757-1 1-684)
chain: MENLQTNFSLVQGSTKKLNGMGDDGSPPAKKMITDIHANGKTINKVPTVKKEHLDDYGEAPVETDGEHVKRTCTSVPETLHLNPSLKHTLAQFHLSSQSSLGGPAAFSARHSQESMSPTVFLPLPSPQVLPGPLLIPSDSSTELTQTVLEGESISCFQVGGEKRLCLPQVLNSVLREFTLQQINTVCDELYIYCSRCTSDQLHILKVLGILPFNAPSCGLITLTDAQRLCNALLRPRTFPQNGSVLPAKSSLAQLKETGSAFEVEHECLGKCQGLFAPQFYVQPDAPCIQCLECCGMFAPQTFVMHSHRSPDKRTCHWGFESAKWHCYLHVNQKYLGTPEEKKLKIILEEMKEKFSMRSGKRNQSKTDAPSGMELQSWYPVIKQEGDHVSQTHSFLHPSYYLYMCDKVVAPNVSLTSAVSQSKELTKTEASKSISRQSEKAHSSGKLQKTVSYPDVSLEEQEKMDLKTSRELCSRLDASISNNSTSKRKSESATCNLVRDINKVGIGLVAAASSPLLVKDVICEDDKGKIMEEVMRTYLKQQEKLNLILQKKQQLQMEVKMLSSSKSMKELTEEQQNLQKELESLQNEHAQRMEEFYVEQKDLEKKLEQIMKQKCTCDSNLEKDKEAEYAGQLAELRQRLDHAEADRQELQDELRQEREARQKLEMMIKELKLQILKSSKTAKE

Experiments:
[1] = biological target: HDAC2 (human (endogenous in patient-derived BTSC lines)) (UniProt Q92769); test: proximity ligation; in situ PLA (Duolink) in adherent BTSCs fixed in 3.7% formaldehyde; pairs of primary antibodies; PLA foci counted in 30 nuclei; romidepsin or vehicle for 24 h
[2] = biological target: HDAC2 (human (endogenous in patient-derived BTSC lines)) (UniProt Q92769); test: co-IP; endogenous proteins of BTSC lines (BT67, BT147); cells dual crosslinked (dithiobis(succinimidyl propionate) 30 min, 1% formaldehyde 10 min); IP buffer 50 mM Tris-HCl pH 8.0, 150 mM NaCl, 1.0 mM EDTA, 0.5% Nonidet P-40; 500 ug extract with 5 ug antibody (HDAC1, HDAC2, SMAD3, SKI or SMAD4) overnight at 4 °C, protein G Dynabeads; also sequential co-IP; cells also treated with romidepsin or DMSO (24, 48, 72 h), with SMAD3 KO, HDAC2 KO or SMAD3 overexpression
[3] = biological target: T1, SMAD4 (human (endogenous in …)); test: co-IP; endogenous proteins of BTSC lines (BT67, BT147); cells dual crosslinked (dithiobis(succinimidyl propionate) 30 min, 1% formaldehyde 10 min); IP buffer 50 mM Tris-HCl pH 8.0, 150 mM NaCl, 1.0 mM EDTA, 0.5% Nonidet P-40; 500 ug extract with 5 ug antibody (HDAC1, HDAC2, SMAD3, SKI or SMAD4) overnight at 4 °C, protein G Dynabeads; also sequential co-IP; cells also treated with romidepsin or DMSO (24, 48, 72 h), …; conditions: remark: other sources report otherwise

Row | Binder | binding [1] | binding [2] | binding [3]
1 | B1 | binds | binds | 
2 | B2 |  |  | binds
3 | B3 |  | no binding | 
